The values that follow come from article PMC10167327.

Sequences of proteins named here, by UniProt entry; tags and fusion partners are left off. Residues count along the entry.
UniProt P47075, residues 1-294: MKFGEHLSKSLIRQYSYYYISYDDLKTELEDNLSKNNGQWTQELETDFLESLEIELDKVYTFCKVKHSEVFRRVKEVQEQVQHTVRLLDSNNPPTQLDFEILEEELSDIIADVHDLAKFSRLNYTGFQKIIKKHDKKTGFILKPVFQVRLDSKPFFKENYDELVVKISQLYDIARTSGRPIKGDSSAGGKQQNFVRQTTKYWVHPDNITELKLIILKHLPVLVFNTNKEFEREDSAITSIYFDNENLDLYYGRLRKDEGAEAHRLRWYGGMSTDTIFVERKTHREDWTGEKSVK

These are yes or no findings as the source states them, for the method shown. In cells and extracts the contact can be indirect. Some binding calls cover weakened binding; strength is not graded here.

For assay [1], the target named is SPX domain of Vtc4 (aa 1–294) with a Gly6 linker and 3xFLAG (S. cerevisiae) (UniProt P47075). Nature of the assay: co-IP; as a6, with 10 µM 1,5-IP8 during the incubation with the recombinant Vtc2-SPX domain; only the binder purified.
For assay [2] the target is unchanged. Nature of the assay: co-IP; co-immunoadsorption: Vtc4 SPX(1–294)-Gly6-3xFLAG from yeast extract adsorbed on anti-FLAG Dynabeads, washed, incubated with 0.8 µM purified recombinant Vtc2-SPX domain, 1.5 h, 4 °C, IP buffer (0.5% Tween 20, 1 mM DTT in TGN buffer); without 1,5-IP8; only the binder purified.

B1: SPX2 (SPX domain of Vtc2, Vtc2(1–201)) (domain or fragment, UniProt P43585 1-201)
chain: MLFGVKLANEVYPPWKGSYINYEGLKKFLKEDSVKDGSNDKKARWDDSDESKFVEELDKELEKVYGFQLKKYNNLMERLSHLEKQTDTEAAIKALDADAFQRVLEELLSESTELDNFKRLNFTGFAKIVKKHDKLYPKYPSVKSLLEVRLKELPSHSEEYSPLLYRISFLYNILRSNFNTASEPLASASKFSSIVSNDIDM
Take B1: the figures for the binding entry in assay [1] and in assay [2] were “no binding (condition: with 10 µM 1,5-IP8)” and “binds”, respectively.
